From patent publication US20240374726A1, “BAG6 SPECIFIC CHIMERIC ANTIGEN RECEPTOR, NUCLEIC ACID, BAG6 SPECIFIC CHIMERIC ANTIGEN RECEPTOR EXPRESSION PLASMID, BAG6 SPECIFIC CHIMERIC ANTIGEN RECEPTOR EXPRESSING CELL, USE THEREOF, AND PHARMACEUTICAL COMPOSITION FOR TREATING CANCER” (China Medical University Hospital, priority 2023, published 2024)
At least one compound was matched to its structure with a doubt left.

How the values were obtained:
[1] = tested on: B7-H6 on the plasma membrane of the human malignant brain tumor cell line DBTRG; experiment: expression level of B7-H6, flow cytometry; assay type: cell-based; conditions: temozolomide 80 μg/mL, 48 hours, versus untreated control
[2] = tested on: BAG6 on the plasma membrane of the human malignant brain tumor cell line DBTRG; experiment: expression level of BAG6, immunofluorescence staining and flow cytometry; assay type: cell-based; conditions: temozolomide 80 μg/mL, 48 hours, versus untreated control

Question: How did the “expression of B7-H6 on the plasma membrane” value [1] turn out when `Cn1nnc2c(C(N)=O)ncn2c1=O` [temozolomide] was run?
Answer: The value was “increase the expression of B7-H6”.

Question: What about the “expression of BAG6 on the plasma membrane” value [2] of the same compound?
Answer: Its value is “increase the expression of BAG6”.
